No constants are given. Whether binding was seen depends on the method and setting. A result given as binding can be weak or reduced; the word gives no strength.

Data on one substance can be found in doi:10.1101/2021.11.10.468004.

The assay concerns the target T1, Nup85 (X. laevis (endogenous in oocytes)) (UniProt Q68FJ0).
T1 sequence: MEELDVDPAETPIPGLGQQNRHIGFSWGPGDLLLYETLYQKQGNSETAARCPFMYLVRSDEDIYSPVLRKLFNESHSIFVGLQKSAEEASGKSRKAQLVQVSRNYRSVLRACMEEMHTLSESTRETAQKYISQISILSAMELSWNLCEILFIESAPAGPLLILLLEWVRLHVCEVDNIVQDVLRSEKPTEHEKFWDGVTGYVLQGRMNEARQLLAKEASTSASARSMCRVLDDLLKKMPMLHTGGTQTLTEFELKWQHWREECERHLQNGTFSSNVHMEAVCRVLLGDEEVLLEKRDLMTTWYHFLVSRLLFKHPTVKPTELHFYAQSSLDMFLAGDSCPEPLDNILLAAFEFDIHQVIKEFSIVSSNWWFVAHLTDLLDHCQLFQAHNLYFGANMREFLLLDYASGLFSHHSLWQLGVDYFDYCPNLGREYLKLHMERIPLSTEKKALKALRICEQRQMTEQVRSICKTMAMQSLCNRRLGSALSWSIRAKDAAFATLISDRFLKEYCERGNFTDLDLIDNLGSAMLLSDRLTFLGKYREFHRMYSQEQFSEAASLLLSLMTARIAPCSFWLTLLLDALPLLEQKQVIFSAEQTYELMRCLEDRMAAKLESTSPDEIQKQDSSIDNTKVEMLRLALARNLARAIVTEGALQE
As to the kind of experiment: cryo-EM structure.

Regarding “Nup205 (X. laevis (endogenous in oocytes))”, the binding result is on record as “binds”.
